Drawing on the supplement of paper PMC12578635, this text covers intracellular bacterial bioluminescence for 92 compounds.

SMILES strings stand for the structures. Some of the results follow. No stated cut-off is given here; in the data, active = 150% or more and inactive = the rest. Single values are uncertain, as repeats are few or missing.

For the test, the system named is Staphylococcus aureus JE2-lux inside RAW 264.7 macrophages. Description: intracellular bacterial bioluminescence relative to DMSO vehicle; higher = higher intracellular bacterial metabolic activity. The note with it: 10 µM; treatment time 4 h; gentamicin 50 µg/ml.
Turning to `Cc1cc2oc(C(=O)Nc3ccccc3F)c(C)c2cc1C`, the intracellular bacterial bioluminescence is inactive: 104%.
To `CNS(=O)(=O)c1cc(-c2cc(C(=O)Nc3ccc(C(C)C)cc3)n[nH]2)ccc1OC` belongs inactive: 82.6%.
For the compound `COc1ccc(C(=O)Nc2sc3c(c2C(N)=O)CC(C)CC3)cc1OC` (configuration not stated), the intracellular bacterial bioluminescence was inactive: 96.1%.
For `Cc1nn2c(C(F)(F)F)cc(-c3ccncc3)nc2c1-c1ccc(Cl)cc1`, the intracellular bacterial bioluminescence was inactive: 104%.
Take `Cc1cc(NC(=O)Cc2ccccc2)nc2c1c(=O)oc1ccccc12`: the intracellular bacterial bioluminescence is inactive: 73.5%.
Consider `Cc1ccc(NC(=O)c2cnc3n(c2=O)CCS3)c(Br)c1`, for which the intracellular bacterial bioluminescence is inactive: 118%.
In the case of `COCCCn1c(-c2ccc(Br)cc2)nc(=S)c2c1CCCC2`, the intracellular bacterial bioluminescence is inactive: 120%.
In the case of `O=C(NNC(=O)c1cc2ccccc2oc1=O)c1ccccc1`, the intracellular bacterial bioluminescence is inactive: 120%.
In the case of `Cc1ccc(Nc2c(C(=O)N3CCN(c4cccc(Cl)c4)CC3)cnc3c2c(C)nn3C)cc1` it was inactive: 30.8%; in that of `CN1CCN(n2c3c(c(SCC(=O)NCc4ccc5c(c4)OCO5)nc2=O)CCCC3)CC1`, inactive: 98.1%; in that of `O=C(Nc1ccc(I)cc1)c1cc2cc(Cl)ccc2oc1=O`, inactive: 77.7%.
In the case of `CCCc1c(C)nc(N2CCN(c3ccc(F)cc3)CC2)[nH]c1=O`, the intracellular bacterial bioluminescence was inactive: 104%.
As for `O=C(Cn1cc(C(=O)c2ccc(Cl)cc2)c(=O)c2cc3c(cc21)OCCO3)Nc1ccc(F)cc1`, the intracellular bacterial bioluminescence was inactive: 100%.
In the case of `COCCOC(=O)Cn1nc2c3c(C)c(C)sc3nc(C)n2c1=O` it was inactive: 87.4%; in that of `Cc1nc(NC(=O)CSc2nc3ccccc3n2CC(=O)NC(C)(C)C)sc1C`, inactive: 99.2%; in that of `Cc1cc(SCc2ccccc2F)nc(=O)[nH]1`, inactive: 128%.
Consider `COc1cccc(NC(=O)CSc2nccn(-c3ccc(OC)c(Cl)c3)c2=O)c1`, for which the intracellular bacterial bioluminescence was inactive: 89.6%.
Take `COCCNC(=O)C(=O)Nc1ccc2c(c1)CCCN2C(=O)c1cccs1`: the intracellular bacterial bioluminescence is inactive: 77%.
To `O=C(CS(=O)(=O)c1c[nH]c2ccccc12)NC1CCCCC1` belongs inactive: 113%; to `CN1CCc2cc(C(CNC(=O)Cc3ccc(-c4ccccc4)cc3)N3CCOCC3)ccc21` (configuration not stated), inactive: 105%.
On to `CC(CCc1ccccc1)NC(=O)c1ncoc1-c1ccccc1F` (configuration not stated), for which the intracellular bacterial bioluminescence is inactive: 30.5%.
`O=C(NCC1CCCO1)C(=O)Nc1cc2c3c(c1)CCC(=O)N3CCC2` (configuration not stated): the intracellular bacterial bioluminescence is inactive: 123%.
Take `O=C(N/N=C\c1cccnc1)c1n[nH]c2c1CCCC2`: the intracellular bacterial bioluminescence is inactive: 138%.
On to `Cc1c(NC(=O)CN2C(=O)C(=O)c3ccccc32)c(=O)n(-c2ccccc2)n1C`, for which the intracellular bacterial bioluminescence is inactive: 103%.
To `COc1cc(C(=O)Nc2c[nH]c3ccccc23)c2ccccc2n1` belongs inactive: 135%; to `COc1ccc(-c2csc3ncnc(NCCCO)c23)cc1`, inactive: 127%; to `CN1CCOc2ccc(NC(=O)c3ccc(F)cc3)cc2C1=O`, inactive: 99.4%.
For `CCCCOc1ccc(CNC(=O)C2CCN(c3ccc4nnc(C)n4n3)CC2)cc1`, the intracellular bacterial bioluminescence is inactive: 51.4%.
For the compound `COc1ccc(C(=O)Nc2nc(CC(=O)NCc3cccnc3)cs2)cc1`, the intracellular bacterial bioluminescence is inactive: 109%.
Take `COc1ccc(Cl)cc1NS(=O)(=O)c1cc2c3c(c1)C(C)C(=O)N3CCC2` (configuration not stated): the intracellular bacterial bioluminescence is inactive: 109%.
For `Cc1cccc2c(C(=O)Nc3cccc(C(=O)N4CCCCC4)c3)cc(O)nc12`, the intracellular bacterial bioluminescence is inactive: 118%.
Turning to `Cc1nc(NCCC2=CCCCC2)c2onc(-c3ccccc3)c2n1`, the intracellular bacterial bioluminescence is inactive: 54.9%.
To `O=C(NCCCN1CCOCC1)c1cc(-c2ccccc2)nc2n[nH]c(-c3ccc(F)cc3)c12` belongs inactive: 106%; to `CC(C)CNC(=S)N1CCC(n2cnc3cc(F)ccc32)CC1`, inactive: 125%; to `COC(=O)c1[nH]c(C)c(C(=O)C2=C(O)C(=O)N(CCN(C)C)C2c2ccncc2)c1C` (configuration not stated), inactive: 102%.
As for `Cc1nonc1CC(=O)NCCn1nc2c(C)cc3ccccc3n2c1=O`, the intracellular bacterial bioluminescence is inactive: 95.5%.
As for `O=C(CSc1nc(=O)[nH]c2c1CCC2)c1ccc(F)cc1`, the intracellular bacterial bioluminescence is inactive: 104%.
For `O=c1[nH]c(=O)c2cc(S(=O)(=O)Nc3ccccc3-c3ccccc3)ccc2[nH]1`, the intracellular bacterial bioluminescence is inactive: 114%.
To `O=C(NCc1ccccc1)C(c1cccs1)N(C(=O)c1ccccn1)c1ccccc1F` (configuration not stated) belongs inactive: 63.8%.
For `Cn1c(=O)c2c(SCC(=O)Nc3ccc(F)cc3)nc(-c3cccs3)nc2n(C)c1=O`, the intracellular bacterial bioluminescence was inactive: 99%.
`CCOc1ccc(S(=O)(=O)N2CCN(c3cc(Nc4ccc(C)cc4)nc(C)n3)CC2)cc1`: the intracellular bacterial bioluminescence was inactive: 92.7%.
For `C=CCOCC(O)Cn1c(N2CCN(Cc3ccccc3)CC2)nc2c1c(=O)[nH]c(=O)n2C` (configuration not stated), the intracellular bacterial bioluminescence was inactive: 88.3%.
In the case of `O=c1[nH]c(=O)n(C2CC(O)C(CO)O2)cc1I` (configuration not stated) it was inactive: 110%; in that of `Cc1ccc(NC(=O)Nc2c(-n3cnnc3)nn(C)c2C)cc1`, inactive: 114%.
In the case of `Cc1nc(CNS(=O)(=O)c2cc([N+](=O)[O-])ccc2C)cs1` it was inactive: 98.6%; in that of `COc1ccc([N+](=O)[O-])cc1NC(=O)c1ccccc1NS(=O)(=O)c1ccccc1`, inactive: 95.9%; in that of `O=C1C=C/C(=N\Oc2ccc([N+](=O)[O-])cc2[N+](=O)[O-])c2cccnc21`, inactive: 19.3%.
Consider `COCCn1ccc2nc(C)c(C(=O)Nc3cc(OC)cc(OC)c3)cc2c1=O`, for which the intracellular bacterial bioluminescence is inactive: 88.3%.
With `Cc1oc2ncnc(Oc3ccccc3F)c2c1C`, the intracellular bacterial bioluminescence is inactive: 126%.
As to `COc1ccc(C2NC(=S)NC(C)=C2C(=O)Nc2ccc(F)c(F)c2)cc1OC` (configuration not stated), the intracellular bacterial bioluminescence was inactive: 101%.
Consider `O=C(Nc1nc2c(Cl)c(Cl)ccc2s1)c1cc2ccccc2oc1=O`, for which the intracellular bacterial bioluminescence was inactive: 102%.
`COc1ccc(-c2ocnc2C(=O)N2CCC(C(N)=O)CC2)cc1OC`: the intracellular bacterial bioluminescence is inactive: 101%.
In the case of `COC(=O)c1ccccc1NC(=O)c1cnc2c(-c3ccccc3)c(C)nn2c1C` it was inactive: 113%.
For `O=C(NCc1cccnc1)c1ncoc1-c1cccc(Cl)c1`, the intracellular bacterial bioluminescence is inactive: 86.2%.
For the compound `CSc1ccccc1NC(=O)c1cnc2n(c1=O)CCS2`, the intracellular bacterial bioluminescence is inactive: 92.4%.
With `O=C(CSc1nc(-c2ccccc2)c2ccccc2n1)NCc1ccc2c(c1)OCO2`, the intracellular bacterial bioluminescence is inactive: 73.9%.
Regarding `Cn1ncc2c(NCc3ccccc3)nc(NC3CCCC3)nc21`, the intracellular bacterial bioluminescence was inactive: 92.3%.
With `Clc1ccc(Cl)c2sc(N3CCOCC3)nc12`, the intracellular bacterial bioluminescence was inactive: 85.4%.
Consider `COc1ccccc1OCCN(C)C(=O)c1sc2ncn(C)c(=O)c2c1C`, for which the intracellular bacterial bioluminescence was inactive: 98.9%.
On to `O=c1nc(SCc2c(F)cccc2Cl)c2c([nH]1)CCC2`, for which the intracellular bacterial bioluminescence is inactive: 122%.
For the compound `CCOC(=O)c1c(C)oc2c1cc(NS(=O)(=O)c1cccc3cccnc13)c1ccccc12`, the intracellular bacterial bioluminescence was inactive: 76.6%.
As for `CCc1cccc(CC)c1NC(=O)CSc1nnc(NC(=O)c2ccco2)s1`, the intracellular bacterial bioluminescence is inactive: 112%.
For `O=C(c1ccc(-c2nc(-c3ccccc3)no2)cc1)N1CCn2c1nc1ccccc12`, the intracellular bacterial bioluminescence was inactive: 93.9%.
In the case of `CC(C(=O)N1CCOCC1)C1CCN(C(=O)c2cc3ccccc3[nH]2)CC1` (configuration not stated) it was inactive: 72.7%; in that of `N#Cc1cc2cc3c(cc2nc1SCC(=O)NCC1CCCO1)OCCO3` (configuration not stated), inactive: 113%; in that of `CCc1c(C)nc(SCC(=O)Nc2cc(C)on2)[nH]c1=O`, inactive: 83.4%.
In the case of `CCOC(=O)c1sc(NC(=O)c2cccc(C)c2)cc1C`, the intracellular bacterial bioluminescence was inactive: 68.2%.
To `Cn1c(SCC(=O)Nc2nc3ccccc3s2)nnc1-c1ccccc1` belongs inactive: 89.6%; to `Cc1ccc(NC(=O)CCN2C(=O)/C(=C\c3ccco3)SC2=S)c(C)c1`, inactive: 113%; to `O=C(CSc1nc(=O)n(CC2CCCO2)c2c1CCCC2)Nc1ccc([N+](=O)[O-])cc1` (configuration not stated), inactive: 71.5%.
As to `COc1ccc(CN2CC3=C(C2=O)C(c2ccc(Cl)cc2)NC(=O)N3)cc1` (configuration not stated), the intracellular bacterial bioluminescence was inactive: 5.7%.
In the case of `Cc1cc2nnc(SCC(=O)Nc3ccc4c(c3)OCO4)n2c2ccccc12` it was inactive: 56.6%; in that of `N#C/C(=C/c1ccc(Cl)cc1)C(=O)Nc1sc2c(c1C(N)=O)CCCC2`, inactive: 119%; in that of `CCOc1ccc(C)cc1S(=O)(=O)Nc1ccc2c(c1)C(=O)Nc1ccccc1O2`, inactive: 130%.
For the compound `O=C(OC(C(=O)NCc1ccc(F)cc1)c1ccc2ncccc2c1)c1cccs1` (configuration not stated), the intracellular bacterial bioluminescence is inactive: 94.2%.
As for `O=c1c2cnn(CCO)c2ncn1Cc1ccccc1Cl`, the intracellular bacterial bioluminescence is inactive: 112%.
In the case of `CCOc1ccc(Cn2c(=O)c3sccc3n3c(=S)[nH]nc23)cc1OCC` it was inactive: 128%; in that of `COC(=O)c1ccc(CSc2nc(N)c3c4c(sc3n2)CCC4)cc1`, inactive: 89%.
With `CCCN1C(=O)/C(=C2\SC(=N)NC2=O)c2cc(Br)ccc21`, the intracellular bacterial bioluminescence is inactive: 103%.
Consider `Cc1cc(C)c2cc(CNCc3ccccc3C)c3nn(C)c(=O)n3c2c1`, for which the intracellular bacterial bioluminescence was inactive: 53.6%.
Take `O=C(NC1CCCC1)C(c1ccc2ncccc2c1)N(Cc1cccs1)C(=O)c1ccc(O)cc1` (configuration not stated): the intracellular bacterial bioluminescence was inactive: 84.1%.
In the case of `COc1cccc(CNC(=O)CSc2nnc3ccc(C(=O)NCc4ccccc4)cn23)c1`, the intracellular bacterial bioluminescence was inactive: 94.1%.
In the case of `O=C(COc1ccc(Cl)cc1Cl)Nc1nnc2n1CCS2`, the intracellular bacterial bioluminescence is inactive: 113%.
As to `COc1ccc(-c2nnc(Nc3ccc4c(c3)OCO4)[nH]c2=O)cc1`, the intracellular bacterial bioluminescence was inactive: 94.8%.
With `Cc1ccc(S(=O)(=O)n2nc(-c3ccc(C)c(C)c3)nc2N)cc1`, the intracellular bacterial bioluminescence was inactive: 16.6%.
Regarding `CCc1ccc(Nc2nc(C)c3ncn(-c4ccc(CC)cc4)c3n2)cc1`, the intracellular bacterial bioluminescence is inactive: 90.5%.
As for `COCCn1c(SCC(=O)Nc2nccs2)nnc1-c1c[nH]c2ccccc12`, the intracellular bacterial bioluminescence was inactive: 99.2%.
For the compound `CCOC(=O)C1=C(C)N=c2s/c(=C3\C(=O)Nc4ccccc43)c(=O)n2C1c1cccs1` (configuration not stated), the intracellular bacterial bioluminescence is inactive: 102%.
In the case of `COc1ccc(-c2nn(Cc3ccc(C)cc3)c(=O)c3noc(C)c23)cc1`, the intracellular bacterial bioluminescence is inactive: 97.4%.
Turning to `Cc1nn(Cc2noc(-c3cc4ccccc4[nH]3)n2)c(C)c1S(=O)(=O)N1CCCC1`, the intracellular bacterial bioluminescence was inactive: 71.9%.
To `Cc1cccn2c(=O)nc(SCC(=O)N(C(C)C)C(C)C)nc12` belongs inactive: 120%; to `O=C(COc1ccccc1)Nc1ccc(-c2cn3ccccc3n2)cc1`, inactive: 73.6%.
